From article PMC10783571

Protein sequences, listed by entry. Tags and fused reporters are not part of them. Lines headed by an entry give the natural chain unless they say otherwise; changes in a name come on top. Residues count along the entry.
UniProt Q96AE7: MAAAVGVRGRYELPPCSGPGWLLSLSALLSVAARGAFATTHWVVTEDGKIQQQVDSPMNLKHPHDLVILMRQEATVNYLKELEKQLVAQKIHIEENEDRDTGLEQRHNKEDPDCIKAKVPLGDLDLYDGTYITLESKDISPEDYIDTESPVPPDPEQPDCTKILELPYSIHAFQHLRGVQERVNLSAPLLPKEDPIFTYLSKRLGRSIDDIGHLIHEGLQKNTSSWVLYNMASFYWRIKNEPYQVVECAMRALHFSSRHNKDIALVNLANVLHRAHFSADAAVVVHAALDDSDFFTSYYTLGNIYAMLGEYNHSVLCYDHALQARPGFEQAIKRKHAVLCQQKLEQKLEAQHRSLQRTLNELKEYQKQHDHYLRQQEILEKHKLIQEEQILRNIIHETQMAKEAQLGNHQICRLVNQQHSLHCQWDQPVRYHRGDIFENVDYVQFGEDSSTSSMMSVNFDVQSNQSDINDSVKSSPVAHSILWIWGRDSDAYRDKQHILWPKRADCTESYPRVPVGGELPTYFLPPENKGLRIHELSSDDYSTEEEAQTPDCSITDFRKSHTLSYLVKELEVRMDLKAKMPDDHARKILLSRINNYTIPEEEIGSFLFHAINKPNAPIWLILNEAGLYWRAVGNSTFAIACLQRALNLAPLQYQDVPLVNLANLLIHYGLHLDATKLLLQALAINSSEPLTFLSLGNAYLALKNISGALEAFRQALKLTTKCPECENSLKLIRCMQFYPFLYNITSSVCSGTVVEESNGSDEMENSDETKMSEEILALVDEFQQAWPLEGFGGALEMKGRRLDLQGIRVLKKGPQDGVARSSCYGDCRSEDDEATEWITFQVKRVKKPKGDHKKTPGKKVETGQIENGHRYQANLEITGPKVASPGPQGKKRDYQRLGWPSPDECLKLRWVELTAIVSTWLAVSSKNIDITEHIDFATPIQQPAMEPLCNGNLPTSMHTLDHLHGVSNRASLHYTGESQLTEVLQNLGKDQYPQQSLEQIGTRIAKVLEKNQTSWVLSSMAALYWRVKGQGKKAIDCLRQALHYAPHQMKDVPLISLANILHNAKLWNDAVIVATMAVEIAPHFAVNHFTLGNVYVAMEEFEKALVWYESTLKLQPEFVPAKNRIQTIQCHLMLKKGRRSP
UniProt Q92545, residues 23-1883: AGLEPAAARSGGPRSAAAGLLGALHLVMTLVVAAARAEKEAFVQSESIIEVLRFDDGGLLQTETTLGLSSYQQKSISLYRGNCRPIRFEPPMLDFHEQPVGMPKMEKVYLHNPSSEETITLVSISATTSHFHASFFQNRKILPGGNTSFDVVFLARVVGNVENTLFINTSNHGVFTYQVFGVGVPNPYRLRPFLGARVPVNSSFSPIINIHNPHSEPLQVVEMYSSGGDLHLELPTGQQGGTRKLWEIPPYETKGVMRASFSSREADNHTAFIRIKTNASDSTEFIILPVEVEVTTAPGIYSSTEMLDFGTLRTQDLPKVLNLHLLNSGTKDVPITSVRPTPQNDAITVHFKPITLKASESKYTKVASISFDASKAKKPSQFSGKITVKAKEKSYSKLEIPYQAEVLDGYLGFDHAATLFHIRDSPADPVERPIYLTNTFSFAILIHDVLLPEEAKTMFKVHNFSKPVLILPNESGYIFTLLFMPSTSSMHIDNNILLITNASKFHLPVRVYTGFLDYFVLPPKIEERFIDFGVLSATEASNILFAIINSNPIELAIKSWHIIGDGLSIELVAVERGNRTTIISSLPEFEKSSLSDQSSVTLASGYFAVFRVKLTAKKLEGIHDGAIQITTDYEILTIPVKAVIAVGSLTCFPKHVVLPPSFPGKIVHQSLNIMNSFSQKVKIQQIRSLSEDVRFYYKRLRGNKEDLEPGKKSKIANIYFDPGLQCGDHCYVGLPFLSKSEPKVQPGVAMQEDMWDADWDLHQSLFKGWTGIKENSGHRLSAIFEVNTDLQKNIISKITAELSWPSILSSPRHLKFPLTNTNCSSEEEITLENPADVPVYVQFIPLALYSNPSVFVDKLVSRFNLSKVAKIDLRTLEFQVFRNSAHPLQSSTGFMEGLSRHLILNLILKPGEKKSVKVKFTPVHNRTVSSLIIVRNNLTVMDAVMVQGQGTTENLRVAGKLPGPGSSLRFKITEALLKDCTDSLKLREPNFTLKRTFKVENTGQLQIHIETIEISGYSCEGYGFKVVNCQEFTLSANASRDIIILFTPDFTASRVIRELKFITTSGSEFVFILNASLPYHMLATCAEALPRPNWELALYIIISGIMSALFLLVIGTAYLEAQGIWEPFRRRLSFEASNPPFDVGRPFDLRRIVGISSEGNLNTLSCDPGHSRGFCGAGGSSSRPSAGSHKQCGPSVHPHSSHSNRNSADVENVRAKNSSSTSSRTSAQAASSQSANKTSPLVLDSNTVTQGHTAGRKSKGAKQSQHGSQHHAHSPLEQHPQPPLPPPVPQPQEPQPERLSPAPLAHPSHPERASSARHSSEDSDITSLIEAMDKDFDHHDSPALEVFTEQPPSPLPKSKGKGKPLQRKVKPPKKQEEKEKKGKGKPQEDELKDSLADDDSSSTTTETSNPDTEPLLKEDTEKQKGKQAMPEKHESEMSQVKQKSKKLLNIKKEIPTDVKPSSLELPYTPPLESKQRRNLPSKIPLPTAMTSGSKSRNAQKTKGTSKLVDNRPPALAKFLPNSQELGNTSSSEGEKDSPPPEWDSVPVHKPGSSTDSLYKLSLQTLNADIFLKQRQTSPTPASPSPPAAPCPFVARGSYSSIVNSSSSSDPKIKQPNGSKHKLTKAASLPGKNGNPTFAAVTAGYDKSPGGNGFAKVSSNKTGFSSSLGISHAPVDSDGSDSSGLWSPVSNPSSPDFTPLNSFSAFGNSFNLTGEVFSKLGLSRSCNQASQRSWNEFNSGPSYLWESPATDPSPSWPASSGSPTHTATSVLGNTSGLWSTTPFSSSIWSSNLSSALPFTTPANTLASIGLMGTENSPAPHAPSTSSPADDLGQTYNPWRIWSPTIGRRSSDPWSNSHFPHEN

Target: TTC17.X1 with a C-terminal 3× FLAG tag (human) (UniProt Q96AE7)
Assay: affinity purification with mass spectrometry; TTC17 with C-terminal 3xFLAG transfected into TTC17-/- HEK cells, lysed 24 h later in MNT buffer (0.5% Triton X-100, pH 7.5); immunoprecipitated with FLAG-M2 antibody overnight at 4 °C; eluted with 200 mM glycine pH 11; LC-MS/MS; untransfected cells as background control

Row | binding | Molecule
1 | binds | transmembrane protein 131 (from UniProt Q92545 23-1883)
2 | binds | TTC13 (protein, UniProt Q8NBP0 1-860) MAPAGCCCCCCFWGGAVAAAGAARRVLLLLLLGVLSAGLRPGALATEHYSPLSLLKQELQHRQQQEAPAGGGGCSPQSGDWGDQYSAECGESSFLNFHDSDCEPKGSSPCDSLLSLNTEKILSQAKSIAEQKRFPFATDNDSTNEELAIAYVLIGSGLYDEAIRHFSTMLQEEPDLVSAIYGRGIAYGKKGLHDIKNAELALFELSRVITLEPDRPEVFEQRAEILSPLGRINEAVNDLTKAIQLQPSARLYRHRGTLYFISEDYATAHEDFQQSLELNKNQPIAMLYKGLTFFHRGLLKEAIESFKEALKQKVDFIDAYKSLGQAYRELGNFEAATESFQKALLLNQNHVQTLQLRGMMLYHHGSLQEALKNFKRCLQLEPYNEVCQYMKGLSHVAMGQFYEGIKAQTKVMLNDPLPGQKASPEYLKVKYLREYSRYLHAHLDTPLTEYNIDVDLPGSFKDHWAKNLPFLIEDYEEQPGLQPHIKDVLHQNFESYKPEVQELICVADRLGSLMQYETPGFLPNKRIHRAMGLAALEVMQAVQRTWTNSKVRMNGKTRLMQWRDMFDIAVKWRRIADPDQPVLWLDQMPARSLSRGFNNHINLIRGQVINMRYLEYFEKILHFIKDRILVYHGANNPKGLLEVREALEKVHKVEDLLPIMKQFNTKTKDGFTVNTKVPSLKDQGKEYDGFTITITGDKVGNILFSVETQTTEERTQLYHAEIDALYKDLTAKGKVLILSSEFGEADAVCNLILSLVYYFYNLMPLSRGSSVIAYSVIVGALMASGKEVAGKIPKGKLVDFEAMTAPGSEAFSKVAKSWMNLKSISPSYKTLPSVSETFPTLRSMIEVLNTDSSPRCLKKL

These are yes or no findings as the source states them, for the method shown. In cells and extracts the contact can be indirect. Here binding means that the protein was enriched with, or labelled near, the bait; the list need not be complete.
